Patent publication US20160280723

What was measured:
[1] = system: alpha-thrombin (Homo sapiens); experiment: activity assay; conditions: 3' thiol (3ThioMC3-D) coupled to vinyl sulfone-PEG36-azide linker 6b, tethered to cyclooctyne AFM tip; AFM unbinding force; 26.5% specific unbinding events; 7.0% and 15.6 pN after blocking with free thrombin; 1x PBS pH 7.4, loading rate 25000 pN/s; single-stranded DNA; dose not given here
[2] = molecular target: bovine serum albumin (BSA) (Bos taurus) (UniProt P02769); experiment: activity assay; conditions: 3' thiol (3ThioMC3-D) coupled to vinyl sulfone-PEG36-azide linker 6b, tethered to cyclooctyne AFM tip; AFM nonspecific unbinding force; 6.1% events; specificity control; 1x PBS pH 7.4; protein details: immobilized on mica; single-stranded DNA; dose not given …

Sequence: GGTTGGTGTGGTTGG
- functional effect of the aptamer [1]: active
- functional effect of the aptamer [2]: not active

For some assays here: A negative result means that nothing was seen under these conditions.
